{
  "source": "patent US20190330337A1",
  "about": "“Tunable Chimeric Antigen Receptors” (AUTOLUS LIMITED, priority 2016, published 2019)",
  "tested_on": "TetR CAR / TiP",
  "assay": "Fluorescent microscopy of TiP-eGFP localisation in SupT1 cells expressing a TetR CAR",
  "format": "cell-based",
  "settings": "presence versus absence of tetracycline",
  "note": "At least one structure is not confirmed: it was looked up by name or label, or the drawing left a doubt.",
  "data": [
    {"smiles": "CN(C)[C@@H]1C(O)=C(C(N)=O)C(=O)[C@@]2(O)C(O)=C3C(=O)c4c(O)cccc4[C@@](C)(O)[C@H]3C[C@@H]12", "note": "[tetracycline]", "values": [
      {"measurement": "eGFP localisation (displacement of TiP from TetR)", "value": "displaced TiP from the TetR CAR"}
    ]}
  ]
}
